Laboratory results: PubChem BioAssay AID1259254 (NCATS, 2017)

Purpose: 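Genome-wide screen for genes that prevent DNA re-replication in cancer cells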 (primary screen)
Cell system: human HCT116 colorectal cancer cells
Reagents: single siRNA against human genes
Timing: 3 days
Detection: 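Imaged Hoechst DNA stain sorts each cell into a cycle phase by DNA amount; per plate, G2 fraction set to 0% for non-targeting and 100% for GMNN siRNA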
Reading the numbers: G2 robust z-score and G2 cells, % of GMNN control: higher = more G2 cells, more excess DNA replication
Active means: 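An siRNA counts as active if its G2 robust z-score lies at least 5 MADs above the screen median; here such calls match roughly 38% of GMNN control or more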
In all, the deposit lists about 59,000 reagents; below is a random part of them. About 1,550 of all reagents (2.6%) were called active. 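G2 share is only a proxy for re-replication; each gene was hit by three separate siRNAs, and active genes were retested.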 Reagents against one gene are numbered here. Further read-outs or replicates are left out here. Not given: the amount of reagent.

Target gene | reagent no. | G2 robust z-score | G2 cells, % of GMNN control | activity call
ACHE | 1 | 0.0781 | 3.52 | inactive
ACHE | 2 | -0.362 | 0.42 | inactive
ACHE | 3 | -0.0216 | 2.82 | inactive
MIF | 1 | -0.0345 | 2.72 | inactive
MIF | 2 | -0.131 | 2.05 | inactive
MIF | 3 | 0.21 | 4.45 | inactive
ZNF536 | 1 | 0.0797 | 3.53 | inactive
ZNF536 | 2 | -1.5 | -7.59 | inactive
ZNF536 | 3 | -0.803 | -2.68 | inactive
EIF2A | 1 | -0.0626 | 2.53 | inactive
EIF2A | 2 | 0.446 | 6.1 | inactive
EIF2A | 3 | -1.22 | -5.64 | inactive
GLB1L | 1 | 3.8 | 29.7 | inactive
GLB1L | 2 | 0.506 | 6.53 | inactive
GLB1L | 3 | -0.319 | 0.726 | inactive
LY6H | 1 | -0.00371 | 2.94 | inactive
LY6H | 2 | 1.05 | 10.4 | inactive
LY6H | 3 | -0.585 | -1.15 | inactive
COL6A5 | 1 | 0.865 | 9.05 | inactive
COL6A5 | 2 | 1.44 | 13.1 | inactive
COL6A5 | 3 | 4.9 | 37.5 | inactive
NFX1 | 1 | 0.232 | 4.6 | inactive
NFX1 | 2 | -0.308 | 0.797 | inactive
NFX1 | 3 | -0.349 | 0.511 | inactive
USP19 | 1 | -0.418 | 0.023 | inactive
USP19 | 2 | -0.153 | 1.89 | inactive
USP19 | 3 | -0.722 | -2.11 | inactive
PTRH2 | 1 | 1.3 | 12.1 | inactive
PTRH2 | 2 | -0.226 | 1.37 | inactive
PTRH2 | 3 | 0.0124 | 3.05 | inactive
KIR3DX1 | 1 | 2.69 | 21.9 | inactive
KIR3DX1 | 2 | -0.95 | -3.72 | inactive
KIR3DX1 | 3 | -0.934 | -3.61 | inactive
SHISA3 | 1 | -1.17 | -5.26 | inactive
SHISA3 | 2 | -1.08 | -4.65 | inactive
SHISA3 | 3 | -0.354 | 0.477 | inactive
ARMCX6 | 1 | -0.705 | -1.99 | inactive
ARMCX6 | 2 | 1.29 | 12 | inactive
ARMCX6 | 3 | -0.573 | -1.06 | inactive
SLC2A11 | 1 | -0.5 | -0.552 | inactive
SLC2A11 | 2 | -0.679 | -1.81 | inactive
SLC2A11 | 3 | -0.344 | 0.547 | inactive
GBGT1 | 1 | -0.739 | -2.23 | inactive
GBGT1 | 2 | 0.0998 | 3.67 | inactive
GBGT1 | 3 | 0.848 | 8.93 | inactive
WNT3A | 1 | 2.41 | 19.9 | inactive
WNT3A | 2 | -0.747 | -2.29 | inactive
WNT3A | 3 | 0.934 | 9.54 | inactive
EIF2S2 | 1 | 2.33 | 19.3 | inactive
EIF2S2 | 2 | 1.25 | 11.8 | inactive
EIF2S2 | 3 | 5.02 | 38.3 | active
RPL21P62 | 1 | 5.19 | 39.5 | active
RPL21P62 | 2 | 1.72 | 15.1 | inactive
RPL21P62 | 3 | 0.497 | 6.47 | inactive
ZBTB10 | 1 | 1.1 | 10.7 | inactive
ZBTB10 | 2 | 0.511 | 6.56 | inactive
ZBTB10 | 3 | -0.149 | 1.92 | inactive
DRC3 | 1 | -0.957 | -3.77 | inactive
DRC3 | 2 | 6.88 | 51.4 | active
DRC3 | 3 | 3.56 | 28 | inactive
SOCS5P5 | 1 | -0.0861 | 2.36 | inactive
SOCS5P5 | 2 | 0.896 | 9.27 | inactive
SOCS5P5 | 3 | 0.0915 | 3.61 | inactive
PURG | 1 | -1.15 | -5.15 | inactive
PURG | 2 | -0.425 | -0.0234 | inactive
PURG | 3 | -0.417 | 0.0358 | inactive
ZNF396 | 1 | -0.248 | 1.22 | inactive
ZNF396 | 2 | 0.132 | 3.9 | inactive
ZNF396 | 3 | 2.13 | 18 | inactive
